In article PMC5073233:
Construct, isoform or probe ends are uncertain for at least one entry. Results from cells or extracts need not show a direct contact. A weaker result is weaker than the reference pair of the same experiment.

Protein sequences, listed by entry. Tags and fused reporters are not part of them. Lines headed by an entry give the natural chain unless they say otherwise; changes in a name come on top.
UniProt Q99814: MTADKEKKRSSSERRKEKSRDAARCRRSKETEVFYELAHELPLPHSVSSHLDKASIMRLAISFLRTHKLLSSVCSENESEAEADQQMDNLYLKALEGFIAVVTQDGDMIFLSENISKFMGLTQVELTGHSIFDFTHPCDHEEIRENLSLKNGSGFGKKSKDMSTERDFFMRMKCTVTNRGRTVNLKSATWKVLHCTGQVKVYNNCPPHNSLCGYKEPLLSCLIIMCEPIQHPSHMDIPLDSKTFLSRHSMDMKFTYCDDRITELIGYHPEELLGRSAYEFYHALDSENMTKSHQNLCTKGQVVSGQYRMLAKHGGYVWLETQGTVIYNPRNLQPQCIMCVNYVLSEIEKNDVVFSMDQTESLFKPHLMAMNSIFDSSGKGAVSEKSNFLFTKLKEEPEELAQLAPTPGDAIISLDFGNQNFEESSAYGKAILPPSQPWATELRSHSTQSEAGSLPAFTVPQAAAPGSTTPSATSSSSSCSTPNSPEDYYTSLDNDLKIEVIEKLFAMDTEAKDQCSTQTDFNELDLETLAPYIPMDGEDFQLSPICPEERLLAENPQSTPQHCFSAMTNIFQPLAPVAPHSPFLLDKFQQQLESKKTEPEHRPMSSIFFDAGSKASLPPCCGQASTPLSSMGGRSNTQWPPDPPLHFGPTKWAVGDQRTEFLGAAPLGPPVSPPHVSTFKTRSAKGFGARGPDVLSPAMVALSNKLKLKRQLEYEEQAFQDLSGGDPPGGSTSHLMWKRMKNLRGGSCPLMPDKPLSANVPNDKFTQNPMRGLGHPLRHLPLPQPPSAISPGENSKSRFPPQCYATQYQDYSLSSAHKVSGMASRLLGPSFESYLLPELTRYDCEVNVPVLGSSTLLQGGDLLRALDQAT

Target: HIF-2alpha (hPMSC nuclear extract) (Homo sapiens) (UniProt Q99814)
Assay: EMSA
Conditions: LightShift EMSA kit: 1x binding buffer, 1 uL poly(dI-dC), 2.5% glycerol, 5 mM MgCl2, 0.05% NP-40 in 20 uL, 8 ug nuclear extract, room temperature 30 min, 6% gel, protein in an extract

CTCCCAAGTAGCTTGGATTACAGGCACGTGCCACCATGCCCAGCTAATTT (double strand) [MAPK3 promoter probe1 (HRE)]
binding result (nuclear extract of hypoxic (5% O2) hPMSCs, shift lost with 200-fold unlabeled probe, anti-HIF-2alpha supershift assay): binds
binding result (nuclear extract of normoxic (21% O2) hPMSCs, less shift than hypoxic extract (protein amount effect)): binds more weakly
